In the supplement of paper PMC10849652:
This is one part of the list. Residues, ends and D or L forms follow the SMILES beside them. *: point of attachment. Cbz = O=C(OCc1ccccc1)*

Sequences of proteins named here, by UniProt entry; tags and fusion partners are left off. A change or cut given only in a name is not applied to a line headed by its entry.
UniProt Q92624: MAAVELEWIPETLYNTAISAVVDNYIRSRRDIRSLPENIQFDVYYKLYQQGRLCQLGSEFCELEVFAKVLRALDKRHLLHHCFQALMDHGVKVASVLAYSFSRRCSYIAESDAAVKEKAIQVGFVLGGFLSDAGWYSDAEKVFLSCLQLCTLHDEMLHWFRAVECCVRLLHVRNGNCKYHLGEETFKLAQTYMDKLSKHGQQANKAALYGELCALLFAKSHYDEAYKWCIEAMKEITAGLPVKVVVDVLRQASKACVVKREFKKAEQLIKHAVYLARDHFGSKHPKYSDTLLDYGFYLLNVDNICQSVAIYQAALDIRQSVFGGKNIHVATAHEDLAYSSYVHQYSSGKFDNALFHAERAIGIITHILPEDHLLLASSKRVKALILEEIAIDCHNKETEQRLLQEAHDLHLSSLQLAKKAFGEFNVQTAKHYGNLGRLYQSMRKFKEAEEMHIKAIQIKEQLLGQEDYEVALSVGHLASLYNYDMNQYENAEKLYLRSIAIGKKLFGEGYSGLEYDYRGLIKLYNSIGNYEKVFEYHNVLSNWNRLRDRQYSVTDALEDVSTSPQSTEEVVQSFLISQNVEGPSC
UniProt Q9UNK9: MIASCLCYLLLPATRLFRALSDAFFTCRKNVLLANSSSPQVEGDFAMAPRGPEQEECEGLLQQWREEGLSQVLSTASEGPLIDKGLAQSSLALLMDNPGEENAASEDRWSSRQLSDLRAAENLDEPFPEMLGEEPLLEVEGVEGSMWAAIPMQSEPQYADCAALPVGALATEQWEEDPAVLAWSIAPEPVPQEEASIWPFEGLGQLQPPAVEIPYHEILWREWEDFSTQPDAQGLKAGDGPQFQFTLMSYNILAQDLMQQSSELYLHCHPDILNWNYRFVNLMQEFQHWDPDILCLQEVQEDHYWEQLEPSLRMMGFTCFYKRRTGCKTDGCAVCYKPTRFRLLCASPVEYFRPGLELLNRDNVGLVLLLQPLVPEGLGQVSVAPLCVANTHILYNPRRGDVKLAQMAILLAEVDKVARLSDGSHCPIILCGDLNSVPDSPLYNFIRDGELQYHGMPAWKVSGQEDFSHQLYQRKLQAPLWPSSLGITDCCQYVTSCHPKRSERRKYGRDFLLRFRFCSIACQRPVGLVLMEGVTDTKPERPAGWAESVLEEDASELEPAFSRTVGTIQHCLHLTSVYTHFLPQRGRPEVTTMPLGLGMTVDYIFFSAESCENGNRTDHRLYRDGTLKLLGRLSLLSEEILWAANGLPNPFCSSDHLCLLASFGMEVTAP
UniProt Q96P48: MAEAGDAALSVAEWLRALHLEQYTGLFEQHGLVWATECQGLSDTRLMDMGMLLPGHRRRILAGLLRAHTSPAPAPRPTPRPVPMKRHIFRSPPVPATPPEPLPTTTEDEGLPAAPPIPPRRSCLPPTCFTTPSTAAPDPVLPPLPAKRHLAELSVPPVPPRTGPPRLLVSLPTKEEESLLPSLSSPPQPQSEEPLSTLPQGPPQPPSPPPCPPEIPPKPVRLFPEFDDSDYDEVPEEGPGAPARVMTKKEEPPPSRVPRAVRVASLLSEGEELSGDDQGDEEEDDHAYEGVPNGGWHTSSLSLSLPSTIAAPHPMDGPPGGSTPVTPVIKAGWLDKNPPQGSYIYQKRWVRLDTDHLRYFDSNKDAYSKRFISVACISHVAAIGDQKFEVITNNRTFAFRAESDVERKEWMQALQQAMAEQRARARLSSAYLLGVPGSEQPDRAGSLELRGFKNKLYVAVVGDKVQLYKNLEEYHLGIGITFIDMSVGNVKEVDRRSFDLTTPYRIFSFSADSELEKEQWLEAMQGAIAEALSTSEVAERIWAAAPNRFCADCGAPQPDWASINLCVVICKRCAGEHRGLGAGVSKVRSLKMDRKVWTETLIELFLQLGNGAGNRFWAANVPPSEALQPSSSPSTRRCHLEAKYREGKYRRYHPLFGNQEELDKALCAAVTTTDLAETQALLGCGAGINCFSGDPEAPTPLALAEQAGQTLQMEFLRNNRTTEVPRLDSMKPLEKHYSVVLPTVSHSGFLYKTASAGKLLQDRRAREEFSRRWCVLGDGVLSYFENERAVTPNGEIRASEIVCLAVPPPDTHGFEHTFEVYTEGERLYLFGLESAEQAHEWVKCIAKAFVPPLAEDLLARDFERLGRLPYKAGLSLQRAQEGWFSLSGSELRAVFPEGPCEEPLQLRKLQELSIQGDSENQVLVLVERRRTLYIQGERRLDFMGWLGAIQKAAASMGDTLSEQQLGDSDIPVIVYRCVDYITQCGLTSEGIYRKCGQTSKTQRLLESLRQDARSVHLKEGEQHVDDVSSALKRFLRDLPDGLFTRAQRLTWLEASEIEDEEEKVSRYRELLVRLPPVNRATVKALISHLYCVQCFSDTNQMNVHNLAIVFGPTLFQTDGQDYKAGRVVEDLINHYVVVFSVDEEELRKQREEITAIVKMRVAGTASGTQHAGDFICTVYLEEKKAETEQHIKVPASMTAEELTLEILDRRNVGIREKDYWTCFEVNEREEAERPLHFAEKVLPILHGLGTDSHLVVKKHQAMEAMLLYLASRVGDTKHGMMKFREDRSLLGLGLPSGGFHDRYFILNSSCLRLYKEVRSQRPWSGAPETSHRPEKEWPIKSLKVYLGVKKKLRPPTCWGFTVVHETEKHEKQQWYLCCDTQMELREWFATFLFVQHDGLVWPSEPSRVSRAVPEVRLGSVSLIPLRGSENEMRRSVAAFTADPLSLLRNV
UniProt Q06481, whole entry, looked up: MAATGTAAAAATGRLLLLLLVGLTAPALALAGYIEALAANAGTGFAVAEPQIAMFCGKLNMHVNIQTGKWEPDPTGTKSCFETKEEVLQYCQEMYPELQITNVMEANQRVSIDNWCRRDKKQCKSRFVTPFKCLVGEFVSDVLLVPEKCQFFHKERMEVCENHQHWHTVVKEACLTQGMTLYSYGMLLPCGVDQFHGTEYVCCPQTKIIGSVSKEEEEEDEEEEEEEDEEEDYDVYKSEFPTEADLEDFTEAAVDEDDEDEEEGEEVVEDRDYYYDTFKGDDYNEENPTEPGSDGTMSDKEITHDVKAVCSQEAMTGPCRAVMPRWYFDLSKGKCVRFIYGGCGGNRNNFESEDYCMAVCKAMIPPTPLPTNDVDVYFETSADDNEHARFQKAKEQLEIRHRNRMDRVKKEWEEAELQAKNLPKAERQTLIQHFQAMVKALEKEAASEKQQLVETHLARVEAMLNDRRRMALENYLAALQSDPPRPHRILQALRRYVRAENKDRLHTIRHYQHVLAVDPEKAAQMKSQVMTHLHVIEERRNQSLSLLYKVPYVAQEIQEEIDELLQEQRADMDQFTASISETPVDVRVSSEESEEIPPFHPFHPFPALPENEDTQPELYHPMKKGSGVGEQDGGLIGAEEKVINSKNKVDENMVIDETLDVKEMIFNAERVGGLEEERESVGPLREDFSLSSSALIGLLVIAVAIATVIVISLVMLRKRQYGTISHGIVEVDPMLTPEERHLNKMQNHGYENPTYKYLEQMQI
UniProt P15144: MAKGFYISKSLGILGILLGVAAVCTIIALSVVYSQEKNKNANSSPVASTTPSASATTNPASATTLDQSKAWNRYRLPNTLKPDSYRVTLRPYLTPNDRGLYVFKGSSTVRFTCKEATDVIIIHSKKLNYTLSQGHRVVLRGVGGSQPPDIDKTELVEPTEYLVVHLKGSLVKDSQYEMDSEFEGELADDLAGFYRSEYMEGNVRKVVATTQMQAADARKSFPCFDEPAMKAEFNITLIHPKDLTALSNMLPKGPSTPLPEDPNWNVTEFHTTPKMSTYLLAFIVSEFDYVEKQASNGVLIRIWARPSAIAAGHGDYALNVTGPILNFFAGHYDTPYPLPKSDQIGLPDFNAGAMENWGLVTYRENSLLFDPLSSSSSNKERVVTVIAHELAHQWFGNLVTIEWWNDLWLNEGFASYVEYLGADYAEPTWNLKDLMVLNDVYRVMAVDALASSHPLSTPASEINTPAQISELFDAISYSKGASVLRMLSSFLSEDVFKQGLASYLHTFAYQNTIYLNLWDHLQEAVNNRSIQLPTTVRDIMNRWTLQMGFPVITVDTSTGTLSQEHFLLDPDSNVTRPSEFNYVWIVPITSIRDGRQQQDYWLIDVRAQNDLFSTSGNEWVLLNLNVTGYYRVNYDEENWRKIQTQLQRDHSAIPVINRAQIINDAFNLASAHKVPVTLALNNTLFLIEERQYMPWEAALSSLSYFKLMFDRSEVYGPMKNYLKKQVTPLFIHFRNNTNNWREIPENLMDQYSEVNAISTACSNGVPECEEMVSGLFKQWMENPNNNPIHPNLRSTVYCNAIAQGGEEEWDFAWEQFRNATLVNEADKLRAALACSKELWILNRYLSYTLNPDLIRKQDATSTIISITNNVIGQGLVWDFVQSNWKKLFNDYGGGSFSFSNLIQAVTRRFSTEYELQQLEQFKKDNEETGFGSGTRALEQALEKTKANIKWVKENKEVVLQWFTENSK
UniProt P53677: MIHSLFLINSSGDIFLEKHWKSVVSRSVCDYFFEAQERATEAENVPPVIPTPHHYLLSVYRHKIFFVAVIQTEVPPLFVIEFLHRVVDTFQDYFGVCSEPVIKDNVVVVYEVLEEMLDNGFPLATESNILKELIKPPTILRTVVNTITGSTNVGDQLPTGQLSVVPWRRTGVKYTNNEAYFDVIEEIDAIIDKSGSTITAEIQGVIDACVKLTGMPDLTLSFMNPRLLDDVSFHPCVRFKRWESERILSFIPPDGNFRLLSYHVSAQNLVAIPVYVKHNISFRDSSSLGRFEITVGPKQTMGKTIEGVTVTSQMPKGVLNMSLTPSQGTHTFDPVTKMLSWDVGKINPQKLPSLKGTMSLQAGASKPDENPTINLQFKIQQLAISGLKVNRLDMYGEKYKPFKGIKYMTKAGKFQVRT
UniProt Q9HCJ1: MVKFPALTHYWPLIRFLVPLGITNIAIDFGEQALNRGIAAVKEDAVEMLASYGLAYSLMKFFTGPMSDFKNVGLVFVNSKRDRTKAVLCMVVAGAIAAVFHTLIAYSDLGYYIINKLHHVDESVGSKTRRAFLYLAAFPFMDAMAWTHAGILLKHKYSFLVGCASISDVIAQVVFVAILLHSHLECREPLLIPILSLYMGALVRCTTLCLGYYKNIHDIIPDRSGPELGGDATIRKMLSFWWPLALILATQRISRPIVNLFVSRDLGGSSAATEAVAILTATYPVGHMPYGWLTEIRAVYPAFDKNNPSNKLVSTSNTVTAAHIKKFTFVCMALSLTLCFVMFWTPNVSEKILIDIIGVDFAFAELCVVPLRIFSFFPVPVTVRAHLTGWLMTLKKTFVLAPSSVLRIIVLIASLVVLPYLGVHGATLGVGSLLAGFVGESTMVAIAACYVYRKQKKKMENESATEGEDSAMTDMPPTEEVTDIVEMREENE
UniProt Q7Z2E3: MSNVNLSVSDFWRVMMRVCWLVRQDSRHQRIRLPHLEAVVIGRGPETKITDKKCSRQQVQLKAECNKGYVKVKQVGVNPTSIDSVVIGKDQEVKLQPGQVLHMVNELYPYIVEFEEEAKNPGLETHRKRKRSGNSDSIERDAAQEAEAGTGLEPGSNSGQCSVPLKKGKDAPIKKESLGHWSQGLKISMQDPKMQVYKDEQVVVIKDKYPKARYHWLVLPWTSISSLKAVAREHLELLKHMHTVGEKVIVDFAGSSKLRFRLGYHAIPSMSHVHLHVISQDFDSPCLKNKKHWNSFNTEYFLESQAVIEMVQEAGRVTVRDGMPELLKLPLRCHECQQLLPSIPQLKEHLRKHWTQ
UniProt P53367: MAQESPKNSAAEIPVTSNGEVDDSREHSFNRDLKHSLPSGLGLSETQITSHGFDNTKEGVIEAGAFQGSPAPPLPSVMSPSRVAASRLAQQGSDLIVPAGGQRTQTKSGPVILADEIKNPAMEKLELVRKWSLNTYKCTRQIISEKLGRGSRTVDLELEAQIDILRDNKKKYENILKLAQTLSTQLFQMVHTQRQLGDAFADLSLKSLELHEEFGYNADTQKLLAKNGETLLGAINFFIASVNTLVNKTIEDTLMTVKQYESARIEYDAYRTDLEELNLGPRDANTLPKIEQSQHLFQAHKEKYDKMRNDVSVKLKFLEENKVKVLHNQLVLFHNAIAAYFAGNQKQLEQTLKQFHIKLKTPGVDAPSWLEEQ
UniProt P02749: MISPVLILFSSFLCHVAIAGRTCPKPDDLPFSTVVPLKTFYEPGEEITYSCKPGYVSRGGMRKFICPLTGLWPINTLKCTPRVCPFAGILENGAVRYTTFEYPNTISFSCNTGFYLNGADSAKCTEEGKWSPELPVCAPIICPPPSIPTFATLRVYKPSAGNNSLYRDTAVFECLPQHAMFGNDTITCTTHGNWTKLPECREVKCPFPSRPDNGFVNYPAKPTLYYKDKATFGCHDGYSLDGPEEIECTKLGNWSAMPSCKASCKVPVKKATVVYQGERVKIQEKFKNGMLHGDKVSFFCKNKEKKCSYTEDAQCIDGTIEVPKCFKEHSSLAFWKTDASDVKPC

Key:
Test in all cases: log2 fold change, soluble protein after heating vs DMSO (PISA); higher = thermal stabilisation; K562 cells, 10 uM, 30 min; active = over 0.2 and 3.5 SD of the protein, either way, in both replicates (recomputed)
IRAK-1-4 Inhibitor I = compound: C1COCCN1CCN2C3=CC=CC=C3N=C2NC(=O)C4=CC(=CC=C4)[N+](=O)[O-] [IRAK-1-4 Inhibitor I]
In short: (§1)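 K562 cells at 2×10^6 cells/mL were treated for 30 min with 10 μM compound, and aliquots were heated for 3 min over 48°C-58°C before pooling. Extraction used PBS with 0.5% NP-40 at 4°C, and soluble protein was the supernatant after 21,000xg for 90 min, measured by TMTpro 16plex LC-MS/MS with channel sums equalised. Thermal stability values, relative to control samples and from duplicates, are log2 fold changes.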

ibrutinib = compound: C=CC(=O)N1CCC[C@@H](n2nc(-c3ccc(Oc4ccccc4)cc3)c3c(N)ncnc32)C1 [ibrutinib]
In short: as §1

ralimetinib = compound: CC(C)(C)Cn1c(N)nc2ccc(-c3[nH]c(C(C)(C)C)nc3-c3ccc(F)cc3)nc21 [ralimetinib]
In short: as §1

[1] = compound: CC(C)C[C@@H](C=O)NC(=O)[C@H](CC(C)C)NC(=O)[C@H](CC(C)C)NC(=O)OCc1ccccc1
In short: as §1

pinometostat = compound: CC(C)N(C[C@H]1O[C@@H](n2cnc3c(N)ncnc32)[C@H](O)[C@@H]1O)[C@H]1C[C@@H](CCc2nc3cc(C(C)(C)C)ccc3[nH]2)C1 [pinometostat]
In short: as §1

[2] = compound: CC1=C(C(CC(=O)N1)C2=CC=C(C=C2)C(F)(F)F)C(=O)NC3=C(C=C4C(=C3)C=NN4)F
In short: as §1

[3] = compound: CC1=C(C2=C(C=C1)C(=O)C3=CC=CC=C3N2CCCN)C
In short: as §1

[4] = compound: CC(C)(O)CC(=O)NCCn1ccc2ncnc(Nc3ccc(Oc4cccc(C(F)(F)F)c4)c(Cl)c3)c21
In short: as §1

[5] = compound: CC(=O)c1cnc2ccc(-c3cc(Cl)c(O)c(Cl)c3)nc2c1N[C@H]1CC[C@H](CN(C)C)CC1
In short: as §1

[6] = compound: CC(C)C1=C2N=C(C=C(N2N=C1)NCC3=CC=CC=C3)NCCCCCCN
In short: as §1

Question: With APPBP2 (UniProt Q92624) as the target, how does the log2 fold change (IRAK-1-4 Inhibitor I) read?
Answer: Its log2 fold change is inactive: 0.05.

Question: What about the log2 fold change (ibrutinib) of the same target?
Answer: Its log2 fold change is inactive: 0.02.

Question: What about the log2 fold change (ralimetinib) of the same target?
Answer: Its log2 fold change is inactive: 0.024.

Question: And the log2 fold change [1]?
Answer: The log2 fold change was inactive: 0.134.

Question: And the log2 fold change (pinometostat)?
Answer: Its log2 fold change is inactive: 0.274.

Question: And the log2 fold change [2]?
Answer: Its log2 fold change is inactive: 0.041.

Question: And the log2 fold change [3]?
Answer: Its log2 fold change is inactive: 0.006.

Question: What does the source list for ANXA2 (UniProt H0YMT9)?
Answer: log2 fold change (IRAK-1-4 Inhibitor I): inactive: 0.086; log2 fold change (ibrutinib): inactive: -0.796; log2 fold change [4]: inactive: -0.422; log2 fold change (pinometostat): inactive: -0.028

Question: With ANGEL1 (UniProt Q9UNK9) as the target, how does the log2 fold change (IRAK-1-4 Inhibitor I) read?
Answer: The log2 fold change was inactive: -0.042.

Question: And the log2 fold change (ibrutinib)?
Answer: The log2 fold change was inactive: 0.062.

Question: And the log2 fold change (ralimetinib)?
Answer: The log2 fold change was inactive: 0.332.

Question: What about the log2 fold change [1] of the same target?
Answer: Its log2 fold change is inactive: 0.207.

Question: What about the log2 fold change (pinometostat) of the same target?
Answer: The log2 fold change was inactive: -0.019.

Question: And the log2 fold change [3]?
Answer: Its log2 fold change is inactive: 0.074.

Question: What does the source list for ARAP1 (UniProt Q96P48)?
Answer: log2 fold change (IRAK-1-4 Inhibitor I): inactive: -0.214; log2 fold change (ibrutinib): inactive: -0.132; log2 fold change (ralimetinib): inactive: 0.225; log2 fold change [4]: inactive: 0.034; log2 fold change [1]: inactive: 0.159; log2 fold change (pinometostat): inactive: 0.324; log2 fold change [2]: inactive: 0.072; log2 fold change [3]: inactive: 0.039

Question: What does the source list for APLP2 (UniProt Q06481)?
Answer: log2 fold change (IRAK-1-4 Inhibitor I): inactive: -0.073; log2 fold change (ibrutinib): inactive: -0.005; log2 fold change [5]: inactive: -0.004; log2 fold change (ralimetinib): inactive: 0.086; log2 fold change [4]: inactive: 0.133; log2 fold change [6]: inactive: 0.167; log2 fold change [1]: inactive: 0.062; log2 fold change (pinometostat): inactive: 0; log2 fold change [3]: inactive: -0.225

Question: ARHGAP35 (UniProt Q9NRY4) was tested. Which log2 fold change (IRAK-1-4 Inhibitor I) did it give?
Answer: Its log2 fold change is inactive: 0.013.

Question: What about the log2 fold change [5] of the same target?
Answer: Its log2 fold change is inactive: -0.107.

Question: What about the log2 fold change (ralimetinib) of the same target?
Answer: Its log2 fold change is inactive: 0.226.

Question: And the log2 fold change [4]?
Answer: The log2 fold change was inactive: -0.02.

Question: And the log2 fold change [6]?
Answer: The log2 fold change was inactive: -0.213.

Question: What about the log2 fold change [1] of the same target?
Answer: Its log2 fold change is inactive: 0.105.

Question: And the log2 fold change (pinometostat)?
Answer: Its log2 fold change is inactive: -0.117.

Question: What about the log2 fold change [3] of the same target?
Answer: Its log2 fold change is inactive: -0.035.

Question: How did the log2 fold change (IRAK-1-4 Inhibitor I) turn out when ANPEP (UniProt P15144) was run?
Answer: Its log2 fold change is inactive: -0.032.

Question: And the log2 fold change [5]?
Answer: The log2 fold change was inactive: -0.376.

Question: And the log2 fold change (ralimetinib)?
Answer: Its log2 fold change is inactive: 0.005.

Question: What about the log2 fold change [6] of the same target?
Answer: The log2 fold change was inactive: -0.048.

Question: And the log2 fold change [1]?
Answer: The log2 fold change was inactive: -0.133.

Question: What about the log2 fold change (pinometostat) of the same target?
Answer: Its log2 fold change is inactive: -0.009.

Question: And the log2 fold change [2]?
Answer: Its log2 fold change is inactive: 0.028.

Question: And the log2 fold change [3]?
Answer: Its log2 fold change is inactive: 0.085.

Question: ANK2 (UniProt Q01484) was tested. Which log2 fold change (IRAK-1-4 Inhibitor I) did it give?
Answer: The log2 fold change was inactive: -0.069.

Question: And the log2 fold change (ibrutinib)?
Answer: The log2 fold change was inactive: -0.024.

Question: What about the log2 fold change [5] of the same target?
Answer: Its log2 fold change is inactive: -0.058.

Question: What about the log2 fold change (ralimetinib) of the same target?
Answer: Its log2 fold change is inactive: -0.029.

Question: What about the log2 fold change [6] of the same target?
Answer: The log2 fold change was inactive: -0.178.

Question: And the log2 fold change [1]?
Answer: Its log2 fold change is inactive: 0.08.

Question: What about the log2 fold change (pinometostat) of the same target?
Answer: Its log2 fold change is inactive: 0.062.

Question: And the log2 fold change [3]?
Answer: The log2 fold change was active: 0.423.

Question: With AP3M2 (UniProt P53677) as the target, how does the log2 fold change (IRAK-1-4 Inhibitor I) read?
Answer: The log2 fold change was inactive: -0.132.

Question: What about the log2 fold change (ibrutinib) of the same target?
Answer: Its log2 fold change is inactive: -0.057.

Question: What about the log2 fold change [6] of the same target?
Answer: Its log2 fold change is inactive: -0.017.

Question: What about the log2 fold change (pinometostat) of the same target?
Answer: The log2 fold change was inactive: 0.121.

Question: For ANKH (UniProt Q9HCJ1), which log2 fold change (IRAK-1-4 Inhibitor I) is on record?
Answer: The log2 fold change was inactive: -0.053.

Question: And the log2 fold change [5]?
Answer: Its log2 fold change is inactive: -0.188.

Question: What about the log2 fold change (ralimetinib) of the same target?
Answer: The log2 fold change was inactive: 0.

Question: What about the log2 fold change [6] of the same target?
Answer: Its log2 fold change is inactive: 0.169.

Question: And the log2 fold change [1]?
Answer: Its log2 fold change is inactive: -0.304.

Question: And the log2 fold change (pinometostat)?
Answer: The log2 fold change was inactive: 0.047.

Question: And the log2 fold change [2]?
Answer: Its log2 fold change is inactive: -0.003.

Question: Which log2 fold change (IRAK-1-4 Inhibitor I) does the source give for APTX (UniProt Q7Z2E3) here?
Answer: Its log2 fold change is inactive: 0.008.

Question: What about the log2 fold change [5] of the same target?
Answer: Its log2 fold change is inactive: 0.129.

Question: What about the log2 fold change [4] of the same target?
Answer: The log2 fold change was inactive: -0.057.

Question: And the log2 fold change [6]?
Answer: The log2 fold change was inactive: -0.368.

Question: And the log2 fold change (pinometostat)?
Answer: Its log2 fold change is inactive: -0.038.

Question: Which log2 fold change (IRAK-1-4 Inhibitor I) does the source give for ARFIP1 isoform 2 (UniProt P53367) here?
Answer: Its log2 fold change is inactive: -0.051.

Question: What about the log2 fold change (ibrutinib) of the same target?
Answer: Its log2 fold change is inactive: -0.055.

Question: And the log2 fold change [4]?
Answer: The log2 fold change was inactive: -0.186.

Question: What about the log2 fold change [6] of the same target?
Answer: The log2 fold change was inactive: -0.048.

Question: What about the log2 fold change (pinometostat) of the same target?
Answer: Its log2 fold change is inactive: 0.043.

Question: What does the source list for APOH (UniProt P02749)?
Answer: log2 fold change (IRAK-1-4 Inhibitor I): inactive: 0.13; log2 fold change (ibrutinib): inactive: 0.155; log2 fold change [5]: inactive: 0.211; log2 fold change (ralimetinib): inactive: -0.131; log2 fold change [6]: inactive: -0.067; log2 fold change [1]: inactive: 0.119; log2 fold change (pinometostat): inactive: -0.117; log2 fold change [3]: inactive: -0.126
